## Library screen at single concentrations

The values are deposited in ChEMBL (CHEMBL3988442, “University of Dundee, Small-Polar-MMV Screening Library” (2021)).

Mtb cholesterol medium: 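Whole-cell growth test on Mycobacterium tuberculosis, read after 4 days in a medium based on cholesterol and the lipid DPPC; the read-out is not stated. Compounds at 50 µM. Direction is inferred from retests: higher values go with more growth inhibition. Of about 69,000 compounds tested this way, about 370 (0.54%) reached 50% or more in at least one test.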
Mtb glucose medium: 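Growth of Mycobacterium tuberculosis over 3 days (7H9 medium with glucose and tyloxapol); the read-out is not stated. Compounds at 50 µM. Direction is inferred from retests: higher values go with more growth inhibition. Size under these conditions: about 69,000 compounds, about 760 of them at 50% or above in at least one test.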

Each number is a percent effect as filed. The controls that fix the scale are not given in the record; negative values are as filed. The compounds are a random part of those screened. Two or more numbers in one place are separate tests of the same structure; such repeats can differ widely.

structure,Mtb cholesterol medium,Mtb glucose medium
CC(C)c1cc(NCC(O)c2ccncc2)n2nccc2n1 (centres unmarked),15.28,-44.85 & 4.942
Cc1ccc(-c2csc(N)c2C#N)cc1,10.38,21.53
CC(=O)N1Cc2ccccc2CC1C(=O)Nc1ccc(C)cn1 (centres unmarked),5.341,-12.06
N#CCCSc1nnc(Cc2ccccc2F)o1,47.7,12.94
CNC(=O)c1cc2c(nc1NCC(C)C)CCN(c1ccncn1)CC2.O=C(O)C(F)(F)F,-13.73,15.87
CC(C)CCc1noc(C[S+]([O-])CC(=O)NCc2ccccc2)n1 (centres unmarked),-8.885,-7.753
O=C(O)C(F)(F)F.[H][C@@]12CN(CC(C)C)C[C@]1([H])C(=O)N(C)C21CCN(C(=O)C(C)C)CC1,0.667,6.125
CCCc1cc(CNC(=O)C2CCOc3ccccc3C2)on1 (centres unmarked),9.034,15.76
CCOc1cccc(NC(=O)c2cc[nH]n2)n1,2.522,16.29
CN(C)CCN(C)c1ccc(-c2nc(COc3ccccc3)no2)cn1,51.64,41.9
CN1CCC(CNC(=O)c2ccc(O)nc2)c2ccccc21 (centres unmarked),5.793,-4.041 & 1.481
COc1cc(CNCC(O)c2ccc(F)cc2F)cc2c1OCO2 (centres unmarked),9.108,-37.31 & 3.039
COc1cccc(OC2CN(C(=O)c3ccnc(OC)c3)C2)c1,0.6346,20.98
O=C(Cn1ccc(-c2ccccc2)n1)N1CCN(C(=O)C2CC2)CC1,-2.253,20.91
Cc1oc(C(=O)O)cc1S(=O)(=O)Nc1cccc(Cl)c1F,-2.939,4.477
CCS(=O)(=O)N1Cc2ccnn2CC(c2nc(C)no2)C1 (centres unmarked),9.825,21.35
NC(=O)C1CN(c2ccc(Br)cn2)CCO1 (centres unmarked),-11.33,-2.242
CC(Cn1cncn1)NCc1n[nH]c2c1CCCCC2 (centres unmarked),1.8,-8.888 & -9.006
CN1CCCc2cc(CNC(=O)c3ccncc3)ccc21,24.9,-27.57
COc1ccc(S(=O)(=O)NCCC(O)c2ccoc2)c(C)c1 (centres unmarked),5.857,-1.225 & 19.57
CC(C)(C(=O)NCC(N)=O)c1ccccc1F,-10.54,-12.41 & -10.7
CC(=O)Nc1nc(C(=O)Nc2ccc(N3CCCCC3)nc2)cs1,-8.593,-14.77
Cc1cc(C)n(CC2CCCN2C(=O)c2cncnc2C)n1 (centres unmarked),-12.42,-3.263
CC(Cn1cncn1)NCc1ccc2nonc2c1 (centres unmarked),-0.9497,7.862
O=C(c1ccoc1)N1CCC(NCc2cccnc2)CC1,-15.66,-10.51
CC(CN1CCCCCC1)NCc1cc(-c2ccco2)on1 (centres unmarked),18.39,30.56
CC1CCCN(CC(=O)N2CCC(c3ncc4c(n3)CCNC4)CC2)C1 (centres unmarked),-10.55,-25.75
CS(=O)(=O)NCC1CCCN(c2ccc(C(F)(F)F)cn2)C1 (centres unmarked),-23.85,22.77
[H][C@@]12C[C@@H](OCc3ccccn3)CN1CCN(C(=O)c1cnccn1)C2,5.843,-6.212
CN(C)C(C(=O)N1CCC(c2ncc[nH]2)CC1)c1ccc2c(c1)OCO2 (centres unmarked),-3.853,-20.66
CCNC(=O)N(Cc1ccoc1)C1CCCCC1,-7.647,0.9203 & 6.877
O=C(O)C(F)(F)F.O=C(O)C(F)(F)F.[H][C@]12CCC[C@@]1(COc1cccnc1)CN(c1ccc(C)nn1)C2,-10.45,14.34
Cc1nnc(N2CCCC3(CN(Cc4cnn(C)c4)CCO3)C2)o1.O=C(O)C(F)(F)F.O=C(O)C(F)(F)F (centres unmarked),4.736,-21.62
Cc1c(C(=O)O)nnn1Cc1cccc(C(F)(F)F)c1,-22.19 & -10.99,-16.25
O=C(c1ccsc1)N1CCc2c(CN3CCCC3)n[nH]c2C1,-10.94,-22.73 & -1.71
O=C(CCc1cc(O)no1)N1CCC(Cc2ccc(F)cc2)CC1,-17.48,-18.83 & 4.445
CCOC(CC)C(=O)NCCC(=O)N1CCN(c2ncccn2)CC1 (centres unmarked),6.186,0.5479 & 8.184
Fc1ccc(C(NCc2nnc(C3CC3)o2)C2CCC2)cc1 (centres unmarked),43.62,44.42
CNC(=O)c1cccc(C2CNCCN2C(=O)C2CCNCC2)c1 (centres unmarked),2.91,5.588
O=C(NC1CCCNC1)c1cc(COc2cccc(C(F)(F)F)c2)[nH]n1 (centres unmarked),-0.2647,-5.983
CCN(C)CC(=O)N1CCC(c2cc(N3CCOCC3)nc(C)n2)CC1,-10.61,-0.9815
Cc1nn(C)c(N(C)C)c1CNC(C)Cc1c(F)cccc1F (centres unmarked),3.331,22.07
COc1ccc2cccc(CC(=O)NCCc3n[nH]c(=O)[nH]3)c2c1,0.2329,18.25
O=C(NCc1cn2c(n1)CN(CC1CCOCC1)CC2)C1CCC1.O=C(O)C(F)(F)F,-6.001 & -11.74,-18.63
CC(C)(CO)Nc1c(NCc2ccccn2)c(=O)c1=O,-13.89,10.07
O=C(O)C(F)(F)F.[H][C@@]12CCCO[C@]1([H])[C@H](OCC)CN2S(=O)(=O)c1cn(C)cn1,-15.86,-34.12
Cc1cnn(CCNCc2cc(=O)n3cc(Cl)ccc3n2)c1,-35.84,-38.67 & 2.958
O=C(O)C(F)(F)F.O=C(O)C(F)(F)F.c1csc(CN2CC3(CCN(Cc4ccsc4)C3)C2)n1,-0.02726,-7.221 & -4.887
CN1CCCN(C(=O)c2nc3sccn3c2-c2ncc[nH]2)CC1,7.686,6.626
Cc1c(CN2CCCC(C(=O)Nc3ccccc3)C2)cc(C#N)n1C (centres unmarked),-1.281,1.779
CN1CCN(CC(NCc2ccc(F)c(F)c2)c2ccccc2)CC1 (centres unmarked),33.92,62.68
Nc1ncc(C(=O)N2CCCC(N)CC2)c(-c2ccccc2)n1 (centres unmarked),-18.98,7.367 & 1.274
c1ccc(-c2cc(CN3CCCC(Cn4cncn4)C3)on2)cc1 (centres unmarked),9.716,36.53
O=C(Nc1ccnn1Cc1ccccc1Cl)C1CCS(=O)(=O)C1 (centres unmarked),8.231,-13.59
Cl.O=c1c2sccc2nc2n1CCN(Cc1ccc(F)c(F)c1)CC2,58.12,55.36
Cc1cc(C2CCCN2C(=O)c2cc3c(s2)CCC3)no1 (centres unmarked),1.768,-43.47 & 1.093
CNc1cccc(C2CCCN(C(=O)c3cscn3)C2)n1 (centres unmarked),6.791,17.94
CNC(=O)N1CCc2cc(C(=O)N(C)C)c(NCC3CC3)nc2CC1.O=C(O)C(F)(F)F,-3.449,5.023
CC(C)NC(=O)Nc1ccccc1CN1CCOCC1,-0.226,0.6853 & -26.9
CC(C)OCCN1CCC(Nc2ncc(Br)cn2)CC1,17.79,-4.069
CC(C)c1n[nH]c(C2CN(C(=O)c3cn4ccccc4n3)CCO2)n1 (centres unmarked),-23.14,15.21
O=C1CSCN1CC(=O)N1CCCC1c1nc2ccccc2s1 (centres unmarked),-22.58,7.587 & -26.97
O=C(Cc1ccccn1)N1CCC(c2noc(-c3ccncc3)n2)CC1,-29.46,-17.04
Cc1ccccc1-n1ncc(C(C)N)c1C (centres unmarked),-17.19,-31.13
Cc1cc(=O)[nH]c(=O)n1COCCOCc1ccccc1,9.044,-9.062
CCNC(=O)c1ccc(NC(=O)N(C)Cc2cccn2C)c(C)c1,-19.17,15.04
CN(C)S(=O)(=O)NCC(Cc1cccc(F)c1)N1CCNC1=O (centres unmarked),-12.16,1.73
Cl.OC1CCN(Cc2c(C3CCCNC3)[nH]c3ncccc23)CC1 (centres unmarked),-16.4,8.199
CC(C)(C)c1oc(C(N)=O)cc1CN1CCOC(C(F)(F)F)C1 (centres unmarked),-4.827,8.682 & 11.29
N#Cc1ccc(C(=O)N2CCOC[C@H](Oc3cnccn3)C2)cc1,0.7996,3.539 & 15.5
[H][C@@]12CCN(Cc3c(C)noc3C)C[C@@]1([H])O[C@H](c1ccncn1)C2,-2.99,7.28
Cc1cc(NC(=O)[C@H]2CCCCN2C(=O)OC(C)(C)C)no1,-23.26,-10.08
[H][C@@]12CCN(Cc3cccnc3OC)[C@]1([H])CC[C@H](c1nnc(C)o1)O2,-0.3255,-19.34 & -6.264
O=C(C1CC1)N1C[C@@H](F)[C@@H](OCc2nc3cc(F)ccc3[nH]2)C1,-16.43,-39.8 & 1.939
CN(CC1CCC1)C(=O)Nc1cccnc1-n1cncn1,-4.633,-0.2525 & -26.49
O=C(CCc1nccs1)N1CCCC(n2ccnc2)C1 (centres unmarked),6.413,9.335
CC(C)(C)OC(=O)N1CC(CC(=O)NCc2ccsc2)C1,-22.27,3.607

Once more, the final 10:

For Cl.OC1CCN(Cc2c(C3CCCNC3)[nH]c3ncccc23)CC1 (centres unmarked) the result was Mtb cholesterol medium: -16.4%; Mtb glucose medium: 8.199%.
For CC(C)(C)c1oc(C(N)=O)cc1CN1CCOC(C(F)(F)F)C1 (centres unmarked) the result was Mtb cholesterol medium: -4.827%; Mtb glucose medium: 8.682% & 11.29%.
For N#Cc1ccc(C(=O)N2CCOC[C@H](Oc3cnccn3)C2)cc1 the result was Mtb cholesterol medium: 0.7996%; Mtb glucose medium: 3.539% & 15.5%.
For [H][C@@]12CCN(Cc3c(C)noc3C)C[C@@]1([H])O[C@H](c1ccncn1)C2 the result was Mtb cholesterol medium: -2.99%; Mtb glucose medium: 7.28%.
For Cc1cc(NC(=O)[C@H]2CCCCN2C(=O)OC(C)(C)C)no1 the result was Mtb cholesterol medium: -23.26%; Mtb glucose medium: -10.08%.
For [H][C@@]12CCN(Cc3cccnc3OC)[C@]1([H])CC[C@H](c1nnc(C)o1)O2 the result was Mtb cholesterol medium: -0.3255%; Mtb glucose medium: -19.34% & -6.264%.
For O=C(C1CC1)N1C[C@@H](F)[C@@H](OCc2nc3cc(F)ccc3[nH]2)C1 the result was Mtb cholesterol medium: -16.43%; Mtb glucose medium: -39.8% & 1.939%.
For CN(CC1CCC1)C(=O)Nc1cccnc1-n1cncn1 the result was Mtb cholesterol medium: -4.633%; Mtb glucose medium: -0.2525% & -26.49%.
For O=C(CCc1nccs1)N1CCCC(n2ccnc2)C1 (centres unmarked) the result was Mtb cholesterol medium: 6.413%; Mtb glucose medium: 9.335%.
For CC(C)(C)OC(=O)N1CC(CC(=O)NCc2ccsc2)C1 the result was Mtb cholesterol medium: -22.27%; Mtb glucose medium: 3.607%.